{
  "source": "patent US5175145A",
  "about": "“Treatment of diabetes mellitus with amylin agonists” (Amylin Pharmaceuticals, Inc., priority 1992, dated 1992)",
  "system": "isolated rat soleus muscles",
  "test": "rate of glycogen synthesis (14C-glucose incorporation into glycogen) in isolated rat soleus muscles",
  "assay_type": "cell-based",
  "note": "Not every detail of the peptide structures is certain; ends, links or a residue may be inferred.",
  "data": [
    {"compound": "CC[C@H](C)[C@H](NC(=O)[C@H](C)NC(=O)CNC(=O)[C@H](Cc1ccccc1)NC(=O)[C@H](CC(N)=O)NC(=O)[C@H](CC(N)=O)NC(=O)[C@H](CO)NC(=O)[C@H](CO)NC(=O)[C@H](Cc1c[nH]cn1)NC(=O)[C@@H](NC(=O)[C@H](CC(C)C)NC(=O)[C@H](Cc1ccccc1)NC(=O)[C@H](CC(N)=O)NC(=O)[C@H](C)NC(=O)[C@H](CC(C)C)NC(=O)[C@H](CCCNC(=N)N)NC(=O)[C@H](CCC(N)=O)NC(=O)[C@@H](NC(=O)[C@H](C)NC(=O)[C@@H]1CSSC[C@H](NC(=O)[C@@H](N)CCCCN)C(=O)N[C@@H](CC(N)=O)C(=O)N[C@@H]([C@@H](C)O)C(=O)N[C@@H](C)C(=O)N[C@@H]([C@@H](C)O)C(=O)N1)[C@@H](C)O)C(C)C)C(=O)N[C@@H](CC(C)C)C(=O)N[C@@H](CO)C(=O)N[C@@H](CO)C(=O)N[C@H](C(=O)N[C@@H](CC(N)=O)C(=O)N[C@H](C(=O)NCC(=O)N[C@@H](CO)C(=O)N[C@@H](CC(N)=O)C(=O)N[C@H](C(=O)N[C@@H](Cc1ccc(O)cc1)C(N)=O)[C@@H](C)O)C(C)C)[C@@H](C)O", "note": "[amylin]", "values": [
      {"measurement": "rate of glycogen synthesis in the presence of amylin", "setting": "insulin 1 to 100 microunits per ml, amylin 120 nanomoles per litre or 15 micromoles per litre, p less than 0.05 at 1 and 100 microunits per ml, Mann Whitney U test", "result": "slowed down"},
      {"measurement": "rate of glycogen synthesis, basal and insulin-stimulated modes", "setting": "isolated rat soleus muscles", "result": "reduces the rate of glycogen synthesis in both the basal and the insulin-stimulated modes"}
    ]}
  ]
}
